We go through 1 compound from paper PMC10817174, “Integrated drug response prediction models pinpoint repurposed drugs with effectiveness against rhabdomyosarcoma” (PLOS ONE, 2024).

Test [1] relates to SJCRH30 (human alveolar rhabdomyosarcoma) cells. The experiment in a line: MTT cell viability assay in SJCRH30 cells. The settings on record: 24 h, SJ-S drugs, read-out: IC50(μM) RMS. Format: cell-based. An excerpt:
(§1) The RD (human embryonal rhabdomyosarcoma) and CCD-18Co (human colon fibroblast) cell lines were purchased from the Korean Cell Line Bank (KCLB). SJCRH30 (human alveolar rhabdomyosarcoma) cell line was purchased from the American Type Culture Collection (ATCC). RD and CCD-18Co cells were maintained in Dulbecco’s Modified Eagle’s Medium (DMEM; Gibco) supplemented with 10% fetal bovine serum (FBS; Gibco) and 1% penicillin/streptomycin (P/S; Gibco). SJCRH30 cells were maintained in Roswell Park Memorial Institute medium (RPMI 1640, Gibco) supplemented with 10% FBS and 1% P/S. Cells were grown in a humidified chamber containing 5% CO2 at 37°C. Cell line authentication was performed by short tandem repeat profile using PowerPlex® 18D system (Promega Corporation) and sequencing apparatus Applied Biosystems 3130xl Genetic Analyzer (Applied Biosystem) according to manufacturer’s protocol.
(§2) SJCRH30, RD, and CCD-18Co cells were seeded at 2 × 10^4 cells/well in 96-well plates. The candidate drugs were treated for 24 h. AZ628, BIX02189, fedratinib, nutlin-3a, VX-11e, SB590885, NSC207895, tubastatin A, CX-5461, navitoclax, GSK1070916 and the FDA-approved drug library were purchased from Selleckchem. […] Absorbance was measured at 570 nm using a Molecular Devices VersaMax microplate reader and SoftMax® Pro 5 software. IC50 was calculated with GraphPad Prism 7 software.
(In general: Formazan colour is commonly taken as a measure of viable cells.)

Test [2] concerns CCD-18Co (human colon fibroblast) cells. Nature of the test: MTT cell viability assay in normal control cells. Format: cell-based.
Excerpt: as §1, §2

Like-named read-outs stand apart in the source and are kept apart here.

Consider `O=C(CCCCCCC(=O)Nc1ccccc1)NO` [Vorinostat], for which the IC50 in test [1] (Homo sapiens, Rhabdomyosarcoma cell) was 0.853 µM; in test [1] it was 0.853 µM. Also, the “selective anti-cancer activity against the RMS cell lines” value in test [2] (based on the CCD-18Co control results) is listed as “selective anti-cancer activity”. In addition, the “IC50(μM) CCD-18Co” value in test [2] (normal cell control, 24 h, MTT) is listed as “No cytotoxicity”.

In general, IC50 refers to the concentration that inhibits the measured activity by half.
